Results of single-concentration screens

Protein sequences, listed by entry. Tags and fused reporters are not part of them. Residues count along the entry.
UniProt Q8IDJ8, 1-583: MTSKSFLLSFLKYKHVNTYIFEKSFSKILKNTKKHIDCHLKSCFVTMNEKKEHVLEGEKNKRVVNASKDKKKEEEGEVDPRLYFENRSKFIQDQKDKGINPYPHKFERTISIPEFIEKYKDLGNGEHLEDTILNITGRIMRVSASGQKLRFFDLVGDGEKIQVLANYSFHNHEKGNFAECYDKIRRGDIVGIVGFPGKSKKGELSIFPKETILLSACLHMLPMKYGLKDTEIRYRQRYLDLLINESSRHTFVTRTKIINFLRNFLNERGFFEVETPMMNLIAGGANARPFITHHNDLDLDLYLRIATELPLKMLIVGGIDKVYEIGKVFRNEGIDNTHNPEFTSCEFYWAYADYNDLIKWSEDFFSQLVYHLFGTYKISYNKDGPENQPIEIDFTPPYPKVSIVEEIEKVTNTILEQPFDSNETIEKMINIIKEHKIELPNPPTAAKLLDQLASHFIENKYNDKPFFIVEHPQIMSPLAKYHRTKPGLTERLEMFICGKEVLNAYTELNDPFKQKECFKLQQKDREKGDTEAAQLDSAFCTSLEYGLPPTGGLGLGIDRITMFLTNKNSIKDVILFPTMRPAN
UniProt A4I591, 1-473: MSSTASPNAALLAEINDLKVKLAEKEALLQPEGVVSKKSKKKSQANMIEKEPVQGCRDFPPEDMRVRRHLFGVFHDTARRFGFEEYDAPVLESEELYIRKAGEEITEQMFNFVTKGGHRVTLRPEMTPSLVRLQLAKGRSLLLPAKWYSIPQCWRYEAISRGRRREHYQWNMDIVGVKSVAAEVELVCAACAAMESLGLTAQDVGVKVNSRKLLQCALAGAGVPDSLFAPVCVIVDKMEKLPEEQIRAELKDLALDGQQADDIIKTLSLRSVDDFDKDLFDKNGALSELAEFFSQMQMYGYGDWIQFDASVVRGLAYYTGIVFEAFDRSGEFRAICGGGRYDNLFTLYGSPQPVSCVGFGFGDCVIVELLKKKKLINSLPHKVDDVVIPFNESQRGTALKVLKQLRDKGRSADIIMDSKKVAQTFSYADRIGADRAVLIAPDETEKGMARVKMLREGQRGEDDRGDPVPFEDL
UniProt Q4DA54, 1-478: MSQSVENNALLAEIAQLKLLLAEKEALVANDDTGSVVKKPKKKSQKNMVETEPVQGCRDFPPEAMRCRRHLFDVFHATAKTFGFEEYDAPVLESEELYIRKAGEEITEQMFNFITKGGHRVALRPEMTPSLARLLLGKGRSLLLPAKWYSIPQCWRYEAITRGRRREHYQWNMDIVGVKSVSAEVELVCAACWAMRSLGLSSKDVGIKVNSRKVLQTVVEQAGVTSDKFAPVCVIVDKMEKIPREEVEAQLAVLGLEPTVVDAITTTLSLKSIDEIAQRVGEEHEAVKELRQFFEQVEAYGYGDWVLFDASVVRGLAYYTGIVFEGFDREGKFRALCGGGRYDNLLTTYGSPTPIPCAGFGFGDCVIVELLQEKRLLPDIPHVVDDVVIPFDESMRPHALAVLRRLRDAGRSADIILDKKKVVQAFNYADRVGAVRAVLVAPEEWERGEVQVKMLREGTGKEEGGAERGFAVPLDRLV
UniProt P9WPC5, whole entry: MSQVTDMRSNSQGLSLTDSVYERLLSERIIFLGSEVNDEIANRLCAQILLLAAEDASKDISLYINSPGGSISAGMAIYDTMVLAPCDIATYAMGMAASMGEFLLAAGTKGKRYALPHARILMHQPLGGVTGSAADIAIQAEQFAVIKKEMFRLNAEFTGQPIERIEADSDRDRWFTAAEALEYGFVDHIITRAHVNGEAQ
UniProt P9WPC3, whole entry partner: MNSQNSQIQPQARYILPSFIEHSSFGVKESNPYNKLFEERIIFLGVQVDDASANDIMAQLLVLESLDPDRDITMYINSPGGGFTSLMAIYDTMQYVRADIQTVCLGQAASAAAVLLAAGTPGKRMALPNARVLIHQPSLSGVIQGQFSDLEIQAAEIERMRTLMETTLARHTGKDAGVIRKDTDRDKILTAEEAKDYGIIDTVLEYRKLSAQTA

Data taken from ChEMBL document CHEMBL3988442, “University of Dundee, Small-Polar-MMV Screening Library” (2021).

PfKRS1: 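Enzyme assay of the cytosolic lysyl-tRNA synthetase in 384-well plates, read by luminescence. Target: Lysine-tRNA ligase, Plasmodium falciparum 3D7 (UniProt Q8IDJ8). Tested at 30 µM. Direction is inferred from only a few compounds that gave an IC50; most scored high, so higher reads as stronger inhibition. Size under these conditions: about 69,000 compounds, about 49 of them at 50% or above in at least one test.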
LiHisRS: 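Histidine-tRNA ligase, Leishmania infantum (UniProt A4I591). Enzyme assay of histidyl-tRNA synthetase; the read-out is not stated. Tested at 30 µM. The record gives no direction; compounds that gave an IC50 in retests scored well above the rest, so higher reads as stronger inhibition. The assay is labelled LdHisRS but filed under L. infantum. Size under these conditions: about 69,000 compounds, about 410 of them at 50% or above in at least one test.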
TcHisRS: 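Enzyme assay of histidyl-tRNA synthetase; the read-out is not stated. Target: Histidine-tRNA ligase, Trypanosoma cruzi CL Brener (UniProt Q4DA54). Concentration: 30 µM. Higher reads as stronger inhibition (inferred: compounds with an IC50 in retests scored well above the rest). Size under these conditions: about 69,000 compounds, about 31 of them at 50% or above in at least one test.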
Leishmania in macrophages: 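Cell assay of Leishmania donovani living inside macrophages; the read-out is not stated. Compounds at 30 µM. Higher reads as stronger inhibition (inferred: compounds with an IC50 in retests scored well above the rest). Size under these conditions: about 69,000 compounds, about 1,000 of them at 50% or above in at least one test.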
ClpP1P2: 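ClpP1P2, Mycobacterium tuberculosis (UniProt P9WPC5 and UniProt P9WPC3). Protease assay of ClpP1P2, read by the AMC dye that it sets free. Compounds at 50 µM. Direction is inferred from only a few compounds that gave an IC50; most scored high, so higher reads as stronger inhibition. Most other retested compounds had strongly negative values. Of about 69,000 compounds tested this way, about 10 (0.015%) reached 50% or more in at least one test.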

The filed quantity is “Percent Effect” (%). The controls that fix the scale are not given in the record; negative values are as filed. The compounds are a random part of those screened.

{"compound": "c1cnc(N2CC[C@@H]3[C@@H]2CCN3Cc2cccs2)nc1", "PfKRS1": 4.096, "LiHisRS": 15.79, "TcHisRS": 7.527, "ClpP1P2": 7.214}
{"compound": "CSc1ccc(NC(=O)COCc2ccccc2)nc1", "PfKRS1": -4.241, "LiHisRS": 0, "TcHisRS": 4.902, "Leishmania in macrophages": -12.41, "ClpP1P2": -31.63}
{"compound": "Cc1noc(C)c1CN1CCOC2(CCCN(c3ncccn3)C2)C1", "stereo": "stereo not shown", "PfKRS1": 8.248, "LiHisRS": 25.71, "TcHisRS": 5.882, "ClpP1P2": 6.374}
{"compound": "COc1ccccc1CC(=O)N1CCC(NCc2ccc(C)o2)CC1", "PfKRS1": 1.484, "LiHisRS": 23.85, "TcHisRS": 9.038, "Leishmania in macrophages": 29.26, "ClpP1P2": -6.538}
{"compound": "O=C(NCCn1ccnc1)c1ccn(-c2ccc(F)cc2)n1", "PfKRS1": 2.275, "LiHisRS": 23.68, "TcHisRS": 7.514, "Leishmania in macrophages": 21.24, "ClpP1P2": 14.63}
{"compound": "CC(C(=O)NC1CCN(C)CC1)n1nc(C(F)(F)F)c(Cl)c1C1CC1", "stereo": "stereo not shown", "PfKRS1": -0.9042, "LiHisRS": 5.31, "TcHisRS": 2.632, "Leishmania in macrophages": 22.45, "ClpP1P2": -0.2471}
{"compound": "c1cncc(CCc2nc(C3CC3)nn2-c2ccc3c(c2)OCCO3)c1", "PfKRS1": -5.06, "LiHisRS": 2.083, "TcHisRS": 3.797, "Leishmania in macrophages": -5.342, "ClpP1P2": 6.007}
{"compound": "c1csc(-c2nc(CN3CCN(c4cnccn4)CC3)co2)c1", "PfKRS1": 3.421, "LiHisRS": 19.83, "TcHisRS": 4.082, "Leishmania in macrophages": 17.3, "ClpP1P2": 3.919}
{"compound": "Cc1cccc(CO[C@@H]2CC[C@H]3[C@H]2OCCN3Cc2nccs2)n1", "PfKRS1": 5.925, "LiHisRS": 22.22, "TcHisRS": 5.473, "ClpP1P2": -0.8978}
{"compound": "CCN(CC)C(=O)[C@@H]1C[C@@H](N)CN1C(=O)c1cc2c([nH]c1=O)CCC2", "PfKRS1": 8.238, "LiHisRS": 31.51, "TcHisRS": 1.98, "Leishmania in macrophages": 14.66, "ClpP1P2": -0.6694}
{"compound": "Cn1cc(C(=O)NCc2cn3c(n2)CN(C2CCOCC2)CC3)cn1.O=C(O)C(F)(F)F", "Leishmania in macrophages": -24.62}
{"compound": "[H][C@]12CN(C(=O)CC3CCCC3)[C@]([H])(CN1)C2", "Leishmania in macrophages": 2.467}
{"compound": "Cc1noc(CN(C)CC(c2cccs2)N2CCOCC2)n1", "stereo": "stereo not shown", "PfKRS1": 1.7, "LiHisRS": 9.091, "TcHisRS": 5.263, "Leishmania in macrophages": -0.5916, "ClpP1P2": -17.54}
{"compound": "CCOc1ccccc1OC1CCN(Cc2ccn(C)c(=O)c2)CC1", "PfKRS1": -0.1145, "LiHisRS": 5.217, "TcHisRS": 4.023, "Leishmania in macrophages": 5.552, "ClpP1P2": 6.559}

Once more, the final 2:

{"compound": "Cc1noc(CN(C)CC(c2cccs2)N2CCOCC2)n1", "stereo": "stereo not shown", "PfKRS1": 1.7, "LiHisRS": 9.091, "TcHisRS": 5.263, "Leishmania in macrophages": -0.5916, "ClpP1P2": -17.54}
{"compound": "CCOc1ccccc1OC1CCN(Cc2ccn(C)c(=O)c2)CC1", "PfKRS1": -0.1145, "LiHisRS": 5.217, "TcHisRS": 4.023, "Leishmania in macrophages": 5.552, "ClpP1P2": 6.559}